# Laboratory results: the M2OR odorant receptor database
# Chains of the proteins cited; added tags and fusions are not shown. A line that says so, or that is headed by a name, gives the form on record, which may keep a tag or linker.
# OR7D4 C139Y, as listed by the source, stated change not applied: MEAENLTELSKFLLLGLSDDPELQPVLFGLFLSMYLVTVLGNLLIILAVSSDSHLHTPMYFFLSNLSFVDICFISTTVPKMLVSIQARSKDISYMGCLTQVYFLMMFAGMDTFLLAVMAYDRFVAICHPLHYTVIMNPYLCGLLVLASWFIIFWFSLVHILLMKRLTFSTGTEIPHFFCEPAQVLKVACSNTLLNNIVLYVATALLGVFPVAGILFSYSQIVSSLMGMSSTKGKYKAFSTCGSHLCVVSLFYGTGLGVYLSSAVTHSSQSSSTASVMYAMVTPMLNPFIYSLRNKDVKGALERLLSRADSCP
# OR7C1, as listed by the source: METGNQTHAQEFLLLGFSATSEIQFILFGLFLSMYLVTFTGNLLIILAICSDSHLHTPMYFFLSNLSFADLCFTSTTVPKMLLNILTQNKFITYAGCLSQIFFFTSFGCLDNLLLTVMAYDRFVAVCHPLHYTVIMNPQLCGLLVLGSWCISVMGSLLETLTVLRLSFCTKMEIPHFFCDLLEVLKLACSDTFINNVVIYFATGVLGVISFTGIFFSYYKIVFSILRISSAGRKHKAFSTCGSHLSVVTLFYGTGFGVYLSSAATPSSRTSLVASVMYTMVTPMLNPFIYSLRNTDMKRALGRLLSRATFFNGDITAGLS
# OR7D4 C139R, as listed by the source, stated change not applied: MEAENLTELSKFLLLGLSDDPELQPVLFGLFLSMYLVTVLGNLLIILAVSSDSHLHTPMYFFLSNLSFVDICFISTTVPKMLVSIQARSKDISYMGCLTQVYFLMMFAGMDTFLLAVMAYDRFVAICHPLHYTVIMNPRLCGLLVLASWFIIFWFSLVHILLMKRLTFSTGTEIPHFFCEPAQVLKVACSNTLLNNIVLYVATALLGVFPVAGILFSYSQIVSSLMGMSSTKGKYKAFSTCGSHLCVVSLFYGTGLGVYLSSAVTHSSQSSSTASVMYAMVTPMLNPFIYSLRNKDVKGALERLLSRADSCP
# OR7D4 A279D, as listed by the source, stated change not applied: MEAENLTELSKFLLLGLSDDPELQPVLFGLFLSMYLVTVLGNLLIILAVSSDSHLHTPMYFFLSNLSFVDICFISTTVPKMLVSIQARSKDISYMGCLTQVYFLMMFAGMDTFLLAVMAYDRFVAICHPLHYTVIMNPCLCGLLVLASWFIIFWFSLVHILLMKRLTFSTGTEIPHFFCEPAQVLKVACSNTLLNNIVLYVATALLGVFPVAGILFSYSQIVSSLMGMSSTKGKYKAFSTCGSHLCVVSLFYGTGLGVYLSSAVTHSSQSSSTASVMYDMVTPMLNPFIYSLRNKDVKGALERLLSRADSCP
# The entries are a selection whose mix differs from that of the whole data set. The calls were merged from several studies; some rest on single wells. Some of the results follow.
# Assays:
# Conditions in all cases: stereoisomer not certain
# OR7C2 = system: T1, OR7C2
# T1 sequence (whole entry): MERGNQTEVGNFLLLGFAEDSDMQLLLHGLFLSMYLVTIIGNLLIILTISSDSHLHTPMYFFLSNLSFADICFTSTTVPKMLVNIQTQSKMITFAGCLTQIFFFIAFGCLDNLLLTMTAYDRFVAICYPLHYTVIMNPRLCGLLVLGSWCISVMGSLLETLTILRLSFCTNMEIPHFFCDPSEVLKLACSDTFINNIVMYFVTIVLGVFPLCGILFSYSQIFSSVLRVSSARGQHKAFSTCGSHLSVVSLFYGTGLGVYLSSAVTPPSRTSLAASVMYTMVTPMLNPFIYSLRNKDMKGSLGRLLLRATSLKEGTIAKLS
# Summary of the method: (§1)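 Whether a receptor–molecule pair is responsive (active) rests on the original authors' judgment that its measured signal was statistically different from baseline. Pairs without that judgment are non-responsive (inactive). Sources used varied assay methods, commonly transient luciferase assays in mammalian cell lines.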
# OR7D2 = system: T2, OR7D2
# T2 sequence (whole entry): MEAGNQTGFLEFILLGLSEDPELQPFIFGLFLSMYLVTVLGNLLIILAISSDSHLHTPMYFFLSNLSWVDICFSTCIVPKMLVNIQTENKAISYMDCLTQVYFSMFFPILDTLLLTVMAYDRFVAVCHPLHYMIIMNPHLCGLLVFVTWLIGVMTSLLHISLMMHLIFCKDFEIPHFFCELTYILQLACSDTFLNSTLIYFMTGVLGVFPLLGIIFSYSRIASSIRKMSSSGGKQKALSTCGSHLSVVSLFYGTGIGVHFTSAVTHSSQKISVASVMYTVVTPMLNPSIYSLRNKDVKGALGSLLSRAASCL
# Summary of the method: as §1
# OR7D4 (Homo sapiens) = target: T3, OR7D4 (Homo sapiens) (UniProt Q8NG98)
# T3 sequence (whole entry): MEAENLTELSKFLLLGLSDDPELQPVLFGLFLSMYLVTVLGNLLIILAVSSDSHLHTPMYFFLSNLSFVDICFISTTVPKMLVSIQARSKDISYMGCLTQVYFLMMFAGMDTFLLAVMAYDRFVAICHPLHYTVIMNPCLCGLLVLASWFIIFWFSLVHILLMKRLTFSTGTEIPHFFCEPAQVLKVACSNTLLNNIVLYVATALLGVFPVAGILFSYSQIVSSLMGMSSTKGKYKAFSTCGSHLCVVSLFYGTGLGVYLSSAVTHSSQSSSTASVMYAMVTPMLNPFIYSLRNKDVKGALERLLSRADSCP
# Summary of the method: as §1
# OR7C1 [1] = system: OR7C1
# Summary of the method: as §1
# OR7C2 (Homo sapiens) = OR7C2 (Homo sapiens) (UniProt O60412)
# Summary of the method: as §1
# OR7D2 (Homo sapiens) = OR7D2 (Homo sapiens) (UniProt Q96RA2)
# Summary of the method: as §1
# OR7D4 A279D = system: OR7D4 A279D
# Summary of the method: as §1
# OR7D4 C139R = system: OR7D4 C139R
# Summary of the method: as §1
# OR7D4 C139Y = system: OR7D4 C139Y
# Summary of the method: as §1
# OR7C1 [2] = system: OR7C1; remark: listed apart in the source
# Summary of the method: as §1
# 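Note: active if original authors judged signal statistically different from baseline.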
smiles,measurement,setting,value
CC(C)CC(=O)O,odorant receptor agonist call,OR7C2,inactive
same,odorant receptor agonist call,OR7D2,inactive
same,odorant receptor agonist call,OR7D4 (Homo sapiens),inactive
CC(C)C(=O)O,odorant receptor agonist call,OR7C2,inactive
same,odorant receptor agonist call,OR7D2,inactive
same,odorant receptor agonist call,OR7D4 (Homo sapiens),inactive
CC1COCc2cc3c(cc21)C(C)(C)C(C)C3(C)C (stereo not drawn),odorant receptor agonist call,OR7C2,inactive
same,odorant receptor agonist call,OR7D2,active
COc1cc(C=O)ccc1O,odorant receptor agonist call,OR7C2,inactive
same,odorant receptor agonist call,OR7D2,inactive
same,odorant receptor agonist call,OR7D4 (Homo sapiens),inactive
C=CCSCC=C,odorant receptor agonist call,OR7C2,inactive
same,odorant receptor agonist call,OR7D2,inactive
same,odorant receptor agonist call,OR7D4 (Homo sapiens),inactive
O=C1CCCCC1,odorant receptor agonist call,OR7C2,inactive
same,odorant receptor agonist call,OR7D2,inactive
same,odorant receptor agonist call,OR7D4 (Homo sapiens),inactive
CC(=O)OC1CC2CCC1(C)C2(C)C (stereo not drawn),odorant receptor agonist call,OR7C2,inactive
same,odorant receptor agonist call,OR7D2,inactive
same,odorant receptor agonist call,OR7D4 (Homo sapiens),inactive
C=CC(C)(O)CCC=C(C)C (stereo not drawn),odorant receptor agonist call,OR7C2,inactive
same,odorant receptor agonist call,OR7D2,inactive
same,odorant receptor agonist call,OR7D4 (Homo sapiens),inactive
CCCCCC(C)=O,odorant receptor agonist call,OR7C2,inactive
same,odorant receptor agonist call,OR7D2,inactive
same,odorant receptor agonist call,OR7D4 (Homo sapiens),inactive
CCCCCCCCCCC=O,odorant receptor agonist call,OR7C2,inactive
same,odorant receptor agonist call,OR7D2,inactive
same,odorant receptor agonist call,OR7D4 (Homo sapiens),inactive
C=CCc1ccc(OC(C)=O)c(OC)c1,odorant receptor agonist call,OR7C2,inactive
same,odorant receptor agonist call,OR7D2,inactive
same,odorant receptor agonist call,OR7D4 (Homo sapiens),inactive
CC12C=CCC1C1CCC3CC(=O)CCC3(C)C1CC2 (stereo not drawn),odorant receptor agonist call,OR7C1 [1],inactive
same,odorant receptor agonist call,OR7C2 (Homo sapiens),inactive
same,odorant receptor agonist call,OR7C2,inactive
same,odorant receptor agonist call,OR7D2 (Homo sapiens),inactive
same,odorant receptor agonist call,OR7D2,inactive
same,odorant receptor agonist call,OR7D4 (Homo sapiens),active
same,odorant receptor agonist call,OR7D4 A279D,inactive
same,odorant receptor agonist call,OR7D4 C139R,active
same,odorant receptor agonist call,OR7D4 C139Y,active
CCCCCC(=O)O,odorant receptor agonist call,OR7C2,inactive
same,odorant receptor agonist call,OR7D2,inactive
same,odorant receptor agonist call,OR7D4 (Homo sapiens),inactive
COc1ccccc1O,odorant receptor agonist call,OR7C2,inactive
same,odorant receptor agonist call,OR7D2,inactive
same,odorant receptor agonist call,OR7D4 (Homo sapiens),inactive
CC12C=CCC1C1CCC3=CC(=O)CCC3(C)C1CC2 (stereo not drawn),odorant receptor agonist call,OR7C1 [2],active
same,odorant receptor agonist call,OR7C2,inactive
same,odorant receptor agonist call,OR7D2 (Homo sapiens),inactive
same,odorant receptor agonist call,OR7D2,inactive
same,odorant receptor agonist call,OR7D4 (Homo sapiens),active
CCCCCOC(C)=O,odorant receptor agonist call,OR7C2,inactive
same,odorant receptor agonist call,OR7D2,inactive
same,odorant receptor agonist call,OR7D4 (Homo sapiens),inactive
CCCCCCCC=CC=O,odorant receptor agonist call,OR7C2,inactive
same,odorant receptor agonist call,OR7D2,inactive
same,odorant receptor agonist call,OR7D4 (Homo sapiens),inactive
CCCCCCCOC(C)=O,odorant receptor agonist call,OR7C2,inactive
same,odorant receptor agonist call,OR7D2,inactive
same,odorant receptor agonist call,OR7D4 (Homo sapiens),inactive
CCCCCCCC=O,odorant receptor agonist call,OR7C2,inactive
same,odorant receptor agonist call,OR7D2,inactive
same,odorant receptor agonist call,OR7D4 (Homo sapiens),inactive
CC12CCC(CC1)C(C)(C)O2,odorant receptor agonist call,OR7C2,inactive
same,odorant receptor agonist call,OR7D2,inactive
same,odorant receptor agonist call,OR7D4 (Homo sapiens),inactive
CCC1(O)C2(C)CCC(C2)C1(C)C (stereo not drawn),odorant receptor agonist call,OR7C2,inactive
same,odorant receptor agonist call,OR7D2,inactive
same,odorant receptor agonist call,OR7D4 (Homo sapiens),inactive
CCCCO,odorant receptor agonist call,OR7C2,inactive
same,odorant receptor agonist call,OR7D2,inactive
same,odorant receptor agonist call,OR7D4 (Homo sapiens),inactive
c1ccc(Oc2ccccc2)cc1,odorant receptor agonist call,OR7C2,inactive
same,odorant receptor agonist call,OR7D2,inactive
same,odorant receptor agonist call,OR7D4 (Homo sapiens),inactive
CC1CCC(C(C)C)C(O)C1 (stereo not drawn),odorant receptor agonist call,OR7C2,inactive
same,odorant receptor agonist call,OR7D2,inactive
same,odorant receptor agonist call,OR7D4 (Homo sapiens),inactive
C=CCc1ccc(OC)c(OC)c1,odorant receptor agonist call,OR7C2,inactive
same,odorant receptor agonist call,OR7D2,inactive
same,odorant receptor agonist call,OR7D4 (Homo sapiens),inactive
CC(C)=CCCC(C)=CC=O,odorant receptor agonist call,OR7C2,inactive
same,odorant receptor agonist call,OR7D2,inactive
same,odorant receptor agonist call,OR7D4 (Homo sapiens),inactive
COC(=O)c1ccccc1O,odorant receptor agonist call,OR7C2,inactive
same,odorant receptor agonist call,OR7D2,inactive
same,odorant receptor agonist call,OR7D4 (Homo sapiens),inactive
CCCCCCC=O,odorant receptor agonist call,OR7D4 (Homo sapiens),inactive
CC(C)CCC(=O)O,odorant receptor agonist call,OR7C2,inactive
same,odorant receptor agonist call,OR7D2,inactive
same,odorant receptor agonist call,OR7D4 (Homo sapiens),inactive
C=C(C)C1CC=C(C)C(=O)C1 (stereo not drawn),odorant receptor agonist call,OR7D4 (Homo sapiens),inactive
CC1=CCC(C(C)(C)O)CC1 (stereo not drawn),odorant receptor agonist call,OR7C2,inactive
same,odorant receptor agonist call,OR7D2,inactive
same,odorant receptor agonist call,OR7D4 (Homo sapiens),inactive
CC(C)(C)c1ccc(CCC=O)cc1,odorant receptor agonist call,OR7C2,inactive
same,odorant receptor agonist call,OR7D2,inactive
same,odorant receptor agonist call,OR7D4 (Homo sapiens),inactive
CC(=O)C(C)=O,odorant receptor agonist call,OR7C2,inactive
same,odorant receptor agonist call,OR7D2,inactive
same,odorant receptor agonist call,OR7D4 (Homo sapiens),inactive
CCC=CCCO,odorant receptor agonist call,OR7C2,inactive
same,odorant receptor agonist call,OR7D2,inactive
same,odorant receptor agonist call,OR7D4 (Homo sapiens),inactive
COC(=O)c1ccccc1,odorant receptor agonist call,OR7C2,inactive
same,odorant receptor agonist call,OR7D2,inactive
same,odorant receptor agonist call,OR7D4 (Homo sapiens),inactive
CCCCCCCCOC(C)=O,odorant receptor agonist call,OR7C2,inactive
same,odorant receptor agonist call,OR7D2,inactive
same,odorant receptor agonist call,OR7D4 (Homo sapiens),inactive
COc1cc(C)ccc1O,odorant receptor agonist call,OR7C2,inactive
same,odorant receptor agonist call,OR7D2,inactive
same,odorant receptor agonist call,OR7D4 (Homo sapiens),inactive
CC=Cc1ccc(O)c(OC)c1,odorant receptor agonist call,OR7C2,inactive
same,odorant receptor agonist call,OR7D2,inactive
same,odorant receptor agonist call,OR7D4 (Homo sapiens),inactive
CC(=O)OCC=C(C)CCC=C(C)C,odorant receptor agonist call,OR7C2,inactive
same,odorant receptor agonist call,OR7D2,inactive
same,odorant receptor agonist call,OR7D4 (Homo sapiens),inactive
CCCCCCCCCC=O,odorant receptor agonist call,OR7C2,inactive
same,odorant receptor agonist call,OR7D2,inactive
same,odorant receptor agonist call,OR7D4 (Homo sapiens),inactive
CC(=O)c1ccccc1,odorant receptor agonist call,OR7C2,inactive
same,odorant receptor agonist call,OR7D2,inactive
same,odorant receptor agonist call,OR7D4 (Homo sapiens),active
CCCC(=O)O,odorant receptor agonist call,OR7C2,inactive
same,odorant receptor agonist call,OR7D2,inactive
same,odorant receptor agonist call,OR7D4 (Homo sapiens),inactive
CC(=O)OC(C)(C)C1CC=C(C)CC1 (stereo not drawn),odorant receptor agonist call,OR7C2,inactive
same,odorant receptor agonist call,OR7D2,inactive
same,odorant receptor agonist call,OR7D4 (Homo sapiens),inactive
CCCCCCOC(=O)CCC,odorant receptor agonist call,OR7C2,inactive
same,odorant receptor agonist call,OR7D2,inactive
same,odorant receptor agonist call,OR7D4 (Homo sapiens),inactive
CCCCCCCCC=O,odorant receptor agonist call,OR7D4 (Homo sapiens),inactive
O=C1CCCCCCCCCCCC(=O)OCCO1,odorant receptor agonist call,OR7C2,inactive
same,odorant receptor agonist call,OR7D2,inactive
same,odorant receptor agonist call,OR7D4 (Homo sapiens),inactive
O=C1CCCCCCCCCCCCCCO1,odorant receptor agonist call,OR7C2,inactive
same,odorant receptor agonist call,OR7D2,inactive
same,odorant receptor agonist call,OR7D4 (Homo sapiens),inactive
CC(C)C=O,odorant receptor agonist call,OR7C2,inactive
same,odorant receptor agonist call,OR7D2,inactive
same,odorant receptor agonist call,OR7D4 (Homo sapiens),inactive
CC1=NC(C)SC1C (stereo not drawn),odorant receptor agonist call,OR7C2,inactive
same,odorant receptor agonist call,OR7D2,inactive
same,odorant receptor agonist call,OR7D4 (Homo sapiens),inactive
CC12CCC(C1)C(C)(C)C2=O (stereo not drawn),odorant receptor agonist call,OR7C2,inactive
same,odorant receptor agonist call,OR7D2,inactive
same,odorant receptor agonist call,OR7D4 (Homo sapiens),inactive
C=CCc1ccc(O)c(OC)c1,odorant receptor agonist call,OR7D4 (Homo sapiens),inactive
O=CCc1ccccc1,odorant receptor agonist call,OR7C2,inactive
same,odorant receptor agonist call,OR7D2,inactive
same,odorant receptor agonist call,OR7D4 (Homo sapiens),inactive
c1cnccn1,odorant receptor agonist call,OR7C2,inactive
same,odorant receptor agonist call,OR7D2,inactive
same,odorant receptor agonist call,OR7D4 (Homo sapiens),inactive
